Earlier results in US9993447B2, “Systems and methods for increasing agmatine cellular uptake by oral administration” (priority 2015, dated 2018).
For at least one compound, name, drawing or mass did not settle the structure.

Conditions: cited from earlier work

## NCCCCN=C(N)N [agmatine, (4-aminobutyl)guanidine]
Aqueous solution
  pH of the guanidinium group in agmatine: about 12.5
  pH of the amino group in agmatine: about 9
